The record followed here is publication PMC11058652.

For assay [1], the target named is HA-tagged HTLV-1 Tax (HTLV-1) (UniProt P03409). As to the kind of experiment: co-IP; HEK293T co-transfected with HA-Tax and Flag-PCBP1 for 24 h; RIPA lysate; IP with HA antibody and Protein G agarose; blot with HA and Flag antibodies.
Assay [2] shares this target. Put plainly: co-IP; HEK293T transfected with HA-Tax, with or without Flag-PCBP1, or HEK293T stably expressing shNC or shPCBP1 transfected with HA-Tax; IP with HA antibody and Protein G; blots for endogenous IKKα, IKKβ and NEMO.
Assay [3] deals with Poly (rC)-binding protein 1, endogenous in HTLV-1-transformed cells (human (endogenous in MT2 and MT4)) (UniProt Q15365). As to the kind of experiment: co-IP; endogenous proteins; lysates of MT2 and MT4 cells; IP with PCBP1 antibody or IgG and Protein G; blots for Tax and PCBP1 (MT2, MT4) and for IKKα and IKKβ (MT2).
Assay [4] deals with Flag-tagged Poly (rC)-binding protein 1, full length (human) (UniProt Q15365). As to the kind of experiment: co-IP; PCBP1 with Tax WT, M22 and M47; details only in Supplementary Figure 3 (not shown).
Assay [5] has the same target. As to the kind of experiment: co-IP; HEK293T co-transfected with HA-Tax and Flag-PCBP1 for 24 h; RIPA lysate; IP with Flag antibody and Protein G agarose; blot with HA and Flag antibodies.

These are yes or no findings as the source states them, for the method shown. Binding seen in cells or lysates may run through a third protein. Some binding calls cover weakened binding; strength is not graded here.

“Flag-tagged Poly (rC)-binding protein 1, full length (from UniProt Q15365 1-356)”: the binding result in assay [1] is reported as “binds”.

Turning to “NEMO, endogenous (from UniProt Q9Y6K9 1-419)”, the binding result in assay [2] is “binds”.

As to “HTLV-1 Tax, endogenous in HTLV-1-transformed cells (from UniProt P03409 1-353)”, the binding result in assay [3] is given as “binds”.

As to “HA-tagged HTLV-1 Tax (from UniProt P03409 1-353)”, the binding result in assay [4] and in assay [5] was “binds” throughout.

B1: IKKβ, endogenous (protein, UniProt O14920 1-756)
chain: MSWSPSLTTQTCGAWEMKERLGTGGFGNVIRWHNQETGEQIAIKQCRQELSPRNRERWCLEIQIMRRLTHPNVVAARDVPEGMQNLAPNDLPLLAMEYCQGGDLRKYLNQFENCCGLREGAILTLLSDIASALRYLHENRIIHRDLKPENIVLQQGEQRLIHKIIDLGYAKELDQGSLCTSFVGTLQYLAPELLEQQKYTVTVDYWSFGTLAFECITGFRPFLPNWQPVQWHSKVRQKSEVDIVVSEDLNGTVKFSSSLPYPNNLNSVLAERLEKWLQLMLMWHPRQRGTDPTYGPNGCFKALDDILNLKLVHILNMVTGTIHTYPVTEDESLQSLKARIQQDTGIPEEDQELLQEAGLALIPDKPATQCISDGKLNEGHTLDMDLVFLFDNSKITYETQISPRPQPESVSCILQEPKRNLAFFQLRKVWGQVWHSIQTLKEDCNRLQQGQRAAMMNLLRNNSCLSKMKNSMASMSQQLKAKLDFFKTSIQIDLEKYSEQTEFGITSDKLLLAWREMEQAVELCGRENEVKLLVERMMALQTDIVDLQRSPMGRKQGGTLDDLEEQARELYRRLREKPRDQRTEGDSQEMVRLLLQAIQSFEKKVRVIYTQLSKTVVCKQKALELLPKVEEVVSLMNEDEKTVVRLQEKRQKELWNLLKIACSKVRGPVSGSPDSMNASRLSQPGQLMSQPSTASNSLPEPAKKSEELVAEAHNLCTLLENAIQDTVREQDQSFTALDWSWLQTEEEEHSCLEQAS
On to B1, for which the binding result in assay [2] is “binds”.
